For at least one entry, the source does not settle the construct or the ends of the probe. At least one verdict rests on a figure or table, not on a statement of the authors.
What was measured:
Rad4-Rad23 = assay: EMSA; conditions: AMP-PNP, 2 mM Mg2+, EMSA: 20 mM HEPES, 100 mM K-acetate, 2 mM Mg-acetate, 5 mM DTT, room temperature 20 min, 250 nM each component, 0.2x TBE agarose gel at 4 C (pH not stated in this buffer), recombinant protein, protein details: His-purified, thrombin-digested, label: 32P 5' end (T4 PNK) in EMSA
coreTFIIH (7 subunits) = assay: EMSA; conditions: AMP-PNP, 2 mM Mg2+, EMSA: 20 mM HEPES, 100 mM K-acetate, 2 mM Mg-acetate, 5 mM DTT, room temperature 20 min, 250 nM each component, 0.2x TBE agarose gel at 4 C (pH not stated in this buffer), native protein, protein details: TAP tags on Tfb4 and Ssl2, TEV-treated, label: 32P 5' end (T4 PNK) in EMSA
[1] = N-2-acetylaminofluorene adduct on the single G of strand 1 (nt 15, position 0)
[2] = N-2-acetylaminofluorene adduct on the single G of strand 1 (nt 14), printed strand spans -13 to +24

Row | Sequence | binding result (Rad4-Rad23; [1]) | binding result (coreTFIIH (7 subunits); [1]) | binding result (Rad4-Rad23; [2]) | binding result (coreTFIIH (7 subunits); [2])
1 | CCATCCCACTACCTGTCCATCTTCACTCA (double strand) [-14/+14 AAF] | binds | binds |  | 
2 | CATCCCACTACCTGTCCATCTTCACTCAACTATCACCC (double strand) [-15/+24 AAF] |  |  | binds | binds

Source: publication PMC8184850, “Cryo-EM structure of TFIIH/Rad4–Rad23–Rad33 in damaged DNA opening in nucleotide excision repair” (Nature Communications, 2021)
